Data reported in PubChem BioAssay AID220 (DTP/NCI, 2004).
The list shows only some results of the screen, not a fair sample: it gathers tests that were run many times, whatever their T/C, doses with no T/C, and many T/C values between a quarter and a half above the control. Other doses and runs of a compound stand elsewhere. T/C is the treated group as % of the vehicle group. Schedule codes are those of the source, taken here to give the interval after Q, in days (D) or hours (H), and the number of doses after X. Some T/C values are followed by the survivors on the day toxicity was checked, most often the fifth; without a count, all were alive then. Some entries give survivors of the animals treated and no T/C: the source holds a T/C of zero for them, seemingly a mark for toxic or unscored doses. Survivors were counted at the toxicity check, usually on the fifth day, unless a day is given; later deaths do not show. Some doses were run more than once; their values stand side by side, smallest first.

Test system: CD8F1 mice, subcutaneous mammary adenocarcinoma, T/C%
Assay: NCI In Vivo Anticancer Drug Screen. Data for tumor model Mammary Adenocarcinoma CD8F1 (subcutaneous) in CD8F1
Settings: higher T/C = larger tumour
Outline: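 Ratio of treated to vehicle-control outcome, based on either survival or tumor size, in mice bearing transplantable tumors given the test compound.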

O=NN(CCCl)C(=O)NC1CCCCC1
T/C (T/C endpoint: mean tumor weight, dose: 12.5 mg/kg/injection, schedule: Q07DX006 (ip), vehicle: saline, evaluated on day 38): 133 % of control [9 of 10 alive]
survivor count (T/C endpoint: median tumor weight change, dose: 64.0 mg/kg/injection, schedule: Q01DX001 (ip), vehicle: Klucel (hydroxypropylcellulose) (HPC)): 2 of 10 on day 28
survivor count (T/C endpoint: median tumor weight change, dose: 80.0 mg/kg/injection, schedule: Q01DX001 (ip), vehicle: Klucel (hydroxypropylcellulose) (HPC)): 2 of 10 on day 33
survivor count (T/C endpoint: median tumor weight change, dose: 120.0 mg/kg/injection, schedule: Q01DX001 (ip), vehicle: Klucel (hydroxypropylcellulose) (HPC)): 4 of 9 on day 35
survivor count (T/C endpoint: median tumor weight change, dose: 160.0 mg/kg/injection, schedule: Q01DX001 (ip), vehicle: Klucel (hydroxypropylcellulose) (HPC)): 1 of 10 on day 29 and 3 of 10 on day 33

CC[C@]1(O)C[C@H]2CN(CCc3c([nH]c4ccccc34)[C@@](C(=O)OC)(c3cc4c(cc3OC)N(C=O)[C@H]3[C@@](O)(C(=O)OC)[C@H](OC(C)=O)[C@]5(CC)C=CCN6CC[C@]43[C@@H]65)C2)C1
T/C (T/C endpoint: median tumor weight (est.), dose: 0.4 mg/kg/injection, schedule: Q01DX005 (ip), vehicle: saline, evaluated on day 30): 146 % of control
survivor count (T/C endpoint: median tumor weight (est.), dose: 0.95 mg/kg/injection, schedule: Q04DX005 (ip), vehicle: saline): 6 of 10
survivor count (T/C endpoint: median tumor weight (est.), dose: 1.0 mg/kg/injection, schedule: Q07DX005 (ip), vehicle: saline): 6 of 10 on day 30
survivor count (T/C endpoint: median tumor weight (est.), dose: 2.0 mg/kg/injection, schedule: Q07DX005 (ip), vehicle: saline): 2 of 10 on day 30 and 6 of 10 on day 30
survivor count (T/C endpoint: median tumor weight (est.), dose: 2.1 mg/kg/injection, schedule: Q04DX005 (ip), vehicle: saline): 3 of 10
survivor count (T/C endpoint: median tumor weight (est.), dose: 2.1 mg/kg/injection, schedule: Q07DX005 (ip), vehicle: saline): 6 of 10
survivor count (T/C endpoint: median tumor weight (est.), dose: 3.0 mg/kg/injection, schedule: Q04DX005 (ip), vehicle: saline): 1 of 10
survivor count (T/C endpoint: median tumor weight (est.), dose: 3.0 mg/kg/injection, schedule: Q07DX005 (ip), vehicle: saline): 4 of 10
survivor count (T/C endpoint: median tumor weight (est.), dose: 4.0 mg/kg/injection, schedule: Q07DX005 (ip), vehicle: saline): 0 of 10 on day 30
survivor count (T/C endpoint: median tumor weight (est.), dose: 8.0 mg/kg/injection, schedule: Q07DX005 (ip), vehicle: saline): 0 of 10 on day 30

COC(=O)[C@@H]1c2cc3c(c(O)c2[C@@H](OC)C[C@@]1(C)O)C(=O)c1c(O)cc2c(c1C3=O)OC1O[C@@]2(C)[C@H](O)[C@@H](N(C)C)[C@@H]1O
T/C (T/C endpoint: median tumor weight (est.), dose: 12.5 mg/kg/injection, schedule: Q07DX005 (ip), vehicle: suspension in saline, evaluated on day 30): 127 % of control [9 of 10 alive]

O=NN(CCF)C(=O)NC1CCCCC1
T/C (T/C endpoint: median tumor weight change, dose: 8.0 mg/kg/injection, schedule: Q01DX001 (ip), vehicle: Klucel (hydroxypropylcellulose) (HPC), evaluated on day 29): 137 % of control
survivor count (T/C endpoint: median tumor weight change, dose: 125.0 mg/kg/injection, schedule: Q01DX001 (ip), vehicle: Klucel (hydroxypropylcellulose) (HPC)): 0 of 10 on day 32
survivor count (T/C endpoint: median tumor weight change, dose: 250.0 mg/kg/injection, schedule: Q01DX001 (ip), vehicle: Klucel (hydroxypropylcellulose) (HPC)): 0 of 10 on day 32
survivor count (T/C endpoint: median tumor weight change, dose: 500.0 mg/kg/injection, schedule: Q01DX001 (ip), vehicle: Klucel (hydroxypropylcellulose) (HPC)): 0 of 10 on day 32
survivor count (T/C endpoint: median tumor weight change, dose: 1000.0 mg/kg/injection, schedule: Q01DX001 (ip), vehicle: Klucel (hydroxypropylcellulose) (HPC)): 0 of 10 on day 32

COc1ccc(S(=O)(=O)N=N/C=C2\C=CC=CN2O)cc1OC
T/C (T/C endpoint: median tumor weight change, dose: 125.0 mg/kg/injection, schedule: Q01DX001 (ip), vehicle: saline with Tween-80, evaluated on day 29): 141 % of control

O=C(Nc1ccccc1C(=O)O)c1cc([N+](=O)[O-])cc([N+](=O)[O-])c1
survivor count (T/C endpoint: median tumor weight change, dose: 500.0 mg/kg/injection, schedule: Q01DX001 (ip), vehicle: saline with Tween-80): 0 of 10 on day 26
survivor count (T/C endpoint: median tumor weight change, dose: 1000.0 mg/kg/injection, schedule: Q01DX001 (ip), vehicle: saline with Tween-80): 0 of 10 on day 26
survivor count (T/C endpoint: median tumor weight change, dose: 2000.0 mg/kg/injection, schedule: Q01DX001 (ip), vehicle: saline with Tween-80): 0 of 10 on day 26

CCCCCCC1C=Cc2ccccc21 (centres undefined)
survivor count (T/C endpoint: median tumor weight (est.), dose: 200.0 mg/kg/injection, schedule: Q07DX005 (ip), vehicle: Klucel (hydroxypropylcellulose) (HPC)): 0 of 10 on day 30

COc1cc2c(c(OC)c1OC)-c1ccc(OC)c(=O)cc1[C@@H](NC(=O)CCl)CC2
survivor count (T/C endpoint: median tumor weight change, dose: 10.0 mg/kg/injection, schedule: Q01DX001 (ip), vehicle: saline with Tween-80): 4 of 10 on day 29
survivor count (T/C endpoint: median tumor weight change, dose: 20.0 mg/kg/injection, schedule: Q01DX001 (ip), vehicle: saline with Tween-80): 3 of 10 on day 29
survivor count (T/C endpoint: median tumor weight change, dose: 40.0 mg/kg/injection, schedule: Q01DX001 (ip), vehicle: saline with Tween-80): 0 of 10 on day 29
